Test results reported in US8609610B2, “Inhibitors of the trypsin-like site of the proteasome and methods of use thereof” (Trustees of Dartmouth College, priority 2011, dated 2013).
For some assays here: At least one structure is not confirmed: it was looked up by name or label, or the drawing left a doubt. Some results were stated once for a whole list of compounds, not compound by compound.

Amino acid sequences for entries named in this document (tags omitted). A change or cut given only in a name is not applied to a line headed by its entry.
UniProt P20618: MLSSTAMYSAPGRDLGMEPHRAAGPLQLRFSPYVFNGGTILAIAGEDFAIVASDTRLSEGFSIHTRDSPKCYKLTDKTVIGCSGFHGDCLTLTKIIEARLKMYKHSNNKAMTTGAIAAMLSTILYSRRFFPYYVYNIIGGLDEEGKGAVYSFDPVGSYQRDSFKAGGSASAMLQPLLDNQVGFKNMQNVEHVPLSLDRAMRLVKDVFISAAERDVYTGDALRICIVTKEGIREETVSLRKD
UniProt P28074: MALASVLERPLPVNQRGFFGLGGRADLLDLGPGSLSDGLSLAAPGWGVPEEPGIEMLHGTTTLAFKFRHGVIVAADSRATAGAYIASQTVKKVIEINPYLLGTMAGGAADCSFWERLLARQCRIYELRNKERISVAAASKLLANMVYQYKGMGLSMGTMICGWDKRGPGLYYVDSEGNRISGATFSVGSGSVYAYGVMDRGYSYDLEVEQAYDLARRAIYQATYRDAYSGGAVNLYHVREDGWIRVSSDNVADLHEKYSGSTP

Key:
[1] = test system: trypsin-like site of 26S proteasomes; test: Inhibition of purified 26S proteasomes, substrate Ac-RLR-amc; assay type: biochemical; conditions: rabbit 26S proteasomes
β5 proteasome subunit = molecular target: T1, β5 proteasome subunit (Homo sapiens, UniProt P20618+P28074); test: Competition assay in HEK-293T cell lysate with MV151; assay type: biochemical; conditions: HEK293 extracts
T1 construct: Whole cell lysates of HEK-293T or EL-4 cells were made by sonication; endogenous in cells; host or cells: HEK-293T
Procedure: Whole cell lysates of HEK-293T or EL-4 cells were made by sonication in 3 volumes of lysis buffer containing 50 mM Tris pH 7.5, 1 mM DTT, 5 mM MgCl2, 250 mM sucrose, 2 mM ATP, 0.025% digitonin. Protein concentration was determined by the Bradford assay. Cell lysates (13.5 μg total protein for HEK lysates and 9 μg total protein for EL-4 lysates) were exposed to the inhibitors for 1 hour at 37° C. prior to incubation with MV151 (0.5 μM) or BODIPY-TMR-epoxomicin (0.5 μM) for an additional 1 hour at 37° C. Reaction mixtures were boiled with Laemmli's buffer containing (3-mercaptoethanol for 5 minutes before being resolved by 12.5% SDS-PAGE. In-gel detection of residual proteasome activity was performed in the wet gel slabs directly on the TYPHOON Variable Mode Imager (Amersham Biosciences) using the Cy3/Tamra settings (λex 532 nm, λem 560 nm) to detect MV151, BODIPY-TMR-epoxomicin and Cy2/Fam settings (λex 488 nm, λem 520 nm) to detect compounds 39 and 59.
The inhibition potential of the inhibitors for each of the catalytically active subunits was assessed in competition assays employing extracts of human embryonic kidney cells (HEK-293T) and mouse lymphoma cells (EL-4) in combination with the fluorescent broad spectrum proteasome probe MV151 (Verdoes, et al. (2006) Chem. Biol. 13:1217-1226). […]

[2] = test system: trypsin-like sites (β2) of proteasome in MM cells; test: PROTEASOMEGLO assay of proteasome inhibition in MM cells; assay type: cell-based; conditions: live MM cells
Procedure: Proteasome inhibition in MM cells was measured with luminogenic substrates using PROTEASOMEGLO assay (Promega). […] An aliquot of culture was pelleted and medium was removed and replaced with PBS. The resulting cell suspension was mixed with luminogenic substrates in the manufacturer-provided lysis/assay buffer. After 3 minutes mixing on an orbital shaker, the plate was incubated in the dark for additional 17 minutes, followed by the measurements of the luminescence, performed in triplicate for each substrate/data point. Data were analyzed as for purified proteasomes. […] Cells (1×10^6 per well of a 6-well plate) were incubated with the inhibitors for 4 hours at 37° C. and this was followed by a 2 hour incubation with 5 μM BODIPY-TMR-epoxomicin. Subsequently, the medium was removed and the cells were washed with PBS and harvested. […] The supernatant was collected and the protein concentration was determined by the Bradford assay, and used to normalize gel loading. The samples were analysed by SDS-PAGE and fluorescent densitometry as described for competition experiment in cell lysates. IC50 values were calculated from three independent experiments using […] PRISM software.

Row | Compound | IC50 (Chym-L)/IC50 (Tr-L) [1] | time to maximal inhibitory effect after addition [2] [h] | other results
1 | CC(C)C[C@H](NC(=O)[C@H](Cc1ccccc1)N=[N+]=[N-])C(=O)N[C@@H](CC(C)C)C(=O)N[C@H](/C=C/S(C)(=O)=O)Cc1ccc(N)cc1 [Compound 45a, N3-Phe-Leu-Leu-Phe(4-NH2)-VS] | 0.36 | – | –
2 | CC(C)C[C@H](NC(=O)[C@H](Cc1ccccc1)N=[N+]=[N-])C(=O)N[C@@H](CC(C)C)C(=O)N[C@@H](Cc1ccc(N)cc1)C(=O)[C@@]1(C)CO1 [Compound 45b, N3-Phe-Leu-Leu-Phe(4-NH2)-EK] | 0.0056 | – | –
3 | CC(C)C[C@H](NC(=O)[C@H](Cc1ccccc1)N=[N+]=[N-])C(=O)N[C@@H](CC(C)C)C(=O)N[C@H](/C=C/S(C)(=O)=O)Cc1ccncc1 [Compound 46, N3-Phe-Leu-Leu-Ala(4-pyridine)-VS] | – | – | inhibition of chymotrypsin-like sites in extracts versus purified proteasomes (β5 proteasome subunit): less potently and selectively in extracts than in purified proteasomes
4 | CC(=O)N[C@@H](CC(C)C)C(=O)N[C@@H](CC(C)C)C(=O)N[C@@H](CCCNC(=N)N)C(=O)[C@@]1(C)CO1 [NC-002, Ac-Leu-Leu-Arg-ek] | – | 6 to 10 | –
5 | Cc1c(O)cccc1C(=O)N[C@H](C(=O)N[C@@H](CO)C(=O)N[C@@H](CCCNC(=N)N)C(=O)[C@@]1(C)CO1)C(C)C [NC-022, HMB-Val-Ser-Arg-ek] | – | 6 to 10 | –
